According to the supplement of paper PMC12595434, “Development of retinoid nuclear receptor pathway antagonists through targeting aldehyde dehydrogenase 1A3” (iScience, 2025):
The other results are listed elsewhere or left out. This is a noisy data set.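 Many melting curves are irregular; where none melted, Tm was taken as 64 °C.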

By UniProt entry, the sequences of proteins in these tests, tags left out. Where a name states a change or a piece, a line headed by the entry shows the natural chain unless it says otherwise.
UniProt Q8N5C8: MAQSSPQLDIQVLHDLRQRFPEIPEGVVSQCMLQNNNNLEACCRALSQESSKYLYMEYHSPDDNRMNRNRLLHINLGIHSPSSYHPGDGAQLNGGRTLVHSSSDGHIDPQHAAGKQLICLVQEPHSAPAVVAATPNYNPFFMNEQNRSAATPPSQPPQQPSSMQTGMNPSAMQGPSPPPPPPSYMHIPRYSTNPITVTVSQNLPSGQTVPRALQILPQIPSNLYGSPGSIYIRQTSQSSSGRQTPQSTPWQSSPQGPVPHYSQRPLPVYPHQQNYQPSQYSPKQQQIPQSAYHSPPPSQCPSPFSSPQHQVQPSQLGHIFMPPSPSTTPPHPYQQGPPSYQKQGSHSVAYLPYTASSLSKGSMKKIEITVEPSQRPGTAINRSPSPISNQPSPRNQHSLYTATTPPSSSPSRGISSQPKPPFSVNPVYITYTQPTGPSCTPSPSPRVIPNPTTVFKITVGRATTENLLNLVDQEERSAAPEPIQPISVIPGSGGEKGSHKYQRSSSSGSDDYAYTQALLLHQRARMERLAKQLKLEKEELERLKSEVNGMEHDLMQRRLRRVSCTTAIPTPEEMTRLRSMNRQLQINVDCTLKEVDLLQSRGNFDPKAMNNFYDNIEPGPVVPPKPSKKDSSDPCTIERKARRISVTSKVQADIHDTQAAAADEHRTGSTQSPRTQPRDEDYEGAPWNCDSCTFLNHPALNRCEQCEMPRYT
UniProt Q8N1G4: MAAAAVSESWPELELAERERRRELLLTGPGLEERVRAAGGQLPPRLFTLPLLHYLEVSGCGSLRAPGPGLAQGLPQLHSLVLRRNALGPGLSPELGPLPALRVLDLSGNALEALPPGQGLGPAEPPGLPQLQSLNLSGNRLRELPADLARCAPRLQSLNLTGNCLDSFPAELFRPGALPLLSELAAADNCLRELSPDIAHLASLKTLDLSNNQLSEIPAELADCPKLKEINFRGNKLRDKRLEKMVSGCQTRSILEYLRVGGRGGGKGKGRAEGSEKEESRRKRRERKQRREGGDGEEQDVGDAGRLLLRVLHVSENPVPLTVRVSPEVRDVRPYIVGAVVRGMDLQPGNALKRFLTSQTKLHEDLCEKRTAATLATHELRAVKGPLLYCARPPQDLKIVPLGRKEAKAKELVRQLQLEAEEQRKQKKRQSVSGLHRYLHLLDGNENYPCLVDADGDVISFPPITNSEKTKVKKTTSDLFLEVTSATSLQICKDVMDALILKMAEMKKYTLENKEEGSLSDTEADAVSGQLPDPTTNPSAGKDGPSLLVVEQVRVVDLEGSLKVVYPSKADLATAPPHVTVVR
UniProt Q8N122, whole entry: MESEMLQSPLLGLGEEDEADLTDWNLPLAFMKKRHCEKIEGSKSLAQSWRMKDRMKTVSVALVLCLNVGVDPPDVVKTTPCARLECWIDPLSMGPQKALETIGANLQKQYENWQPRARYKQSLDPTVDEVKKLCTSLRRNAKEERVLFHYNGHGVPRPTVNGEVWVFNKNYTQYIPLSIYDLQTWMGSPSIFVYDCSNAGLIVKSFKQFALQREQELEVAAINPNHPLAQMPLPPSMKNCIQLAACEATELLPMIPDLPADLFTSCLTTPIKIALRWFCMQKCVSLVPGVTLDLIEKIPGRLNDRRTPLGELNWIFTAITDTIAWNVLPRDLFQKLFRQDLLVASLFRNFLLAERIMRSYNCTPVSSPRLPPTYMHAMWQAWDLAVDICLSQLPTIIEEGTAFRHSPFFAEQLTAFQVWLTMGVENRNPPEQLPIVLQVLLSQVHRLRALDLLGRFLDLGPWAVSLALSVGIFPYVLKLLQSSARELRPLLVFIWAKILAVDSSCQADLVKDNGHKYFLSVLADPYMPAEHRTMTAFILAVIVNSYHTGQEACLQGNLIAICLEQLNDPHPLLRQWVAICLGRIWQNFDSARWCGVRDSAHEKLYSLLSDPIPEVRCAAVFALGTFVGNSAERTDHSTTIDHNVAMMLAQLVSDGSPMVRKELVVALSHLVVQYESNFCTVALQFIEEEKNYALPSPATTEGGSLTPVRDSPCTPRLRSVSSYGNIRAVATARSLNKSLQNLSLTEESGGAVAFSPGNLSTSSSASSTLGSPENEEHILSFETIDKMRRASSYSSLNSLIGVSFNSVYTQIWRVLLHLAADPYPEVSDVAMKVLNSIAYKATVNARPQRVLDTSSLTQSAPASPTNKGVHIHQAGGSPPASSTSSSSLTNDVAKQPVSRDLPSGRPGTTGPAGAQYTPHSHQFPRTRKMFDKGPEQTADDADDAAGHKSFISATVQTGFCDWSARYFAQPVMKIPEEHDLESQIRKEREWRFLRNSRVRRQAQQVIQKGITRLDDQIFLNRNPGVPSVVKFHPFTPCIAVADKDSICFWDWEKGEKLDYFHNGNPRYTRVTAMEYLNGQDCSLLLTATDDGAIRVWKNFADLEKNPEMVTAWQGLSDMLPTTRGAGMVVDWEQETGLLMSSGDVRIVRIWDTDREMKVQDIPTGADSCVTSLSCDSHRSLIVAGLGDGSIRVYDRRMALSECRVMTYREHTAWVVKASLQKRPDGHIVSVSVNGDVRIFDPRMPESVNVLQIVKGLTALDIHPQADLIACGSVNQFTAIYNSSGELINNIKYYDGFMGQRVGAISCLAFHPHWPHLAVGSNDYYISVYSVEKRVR
UniProt Q8IXW5, whole entry: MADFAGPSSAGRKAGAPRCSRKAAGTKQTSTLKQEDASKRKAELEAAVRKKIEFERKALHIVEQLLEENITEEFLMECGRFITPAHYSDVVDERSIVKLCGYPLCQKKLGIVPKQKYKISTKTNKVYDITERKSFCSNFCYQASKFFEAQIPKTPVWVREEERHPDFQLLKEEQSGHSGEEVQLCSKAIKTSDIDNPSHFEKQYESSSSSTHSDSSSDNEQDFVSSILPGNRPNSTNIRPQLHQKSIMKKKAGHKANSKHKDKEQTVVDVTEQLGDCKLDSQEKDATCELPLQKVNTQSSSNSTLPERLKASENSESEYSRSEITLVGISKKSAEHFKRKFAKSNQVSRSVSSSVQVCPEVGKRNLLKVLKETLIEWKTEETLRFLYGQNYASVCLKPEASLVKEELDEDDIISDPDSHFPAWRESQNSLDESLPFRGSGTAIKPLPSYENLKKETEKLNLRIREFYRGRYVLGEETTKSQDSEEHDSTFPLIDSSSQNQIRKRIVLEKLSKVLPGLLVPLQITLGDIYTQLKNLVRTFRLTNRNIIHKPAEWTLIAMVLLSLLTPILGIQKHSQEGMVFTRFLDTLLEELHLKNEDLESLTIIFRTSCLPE
UniProt Q8N5I2: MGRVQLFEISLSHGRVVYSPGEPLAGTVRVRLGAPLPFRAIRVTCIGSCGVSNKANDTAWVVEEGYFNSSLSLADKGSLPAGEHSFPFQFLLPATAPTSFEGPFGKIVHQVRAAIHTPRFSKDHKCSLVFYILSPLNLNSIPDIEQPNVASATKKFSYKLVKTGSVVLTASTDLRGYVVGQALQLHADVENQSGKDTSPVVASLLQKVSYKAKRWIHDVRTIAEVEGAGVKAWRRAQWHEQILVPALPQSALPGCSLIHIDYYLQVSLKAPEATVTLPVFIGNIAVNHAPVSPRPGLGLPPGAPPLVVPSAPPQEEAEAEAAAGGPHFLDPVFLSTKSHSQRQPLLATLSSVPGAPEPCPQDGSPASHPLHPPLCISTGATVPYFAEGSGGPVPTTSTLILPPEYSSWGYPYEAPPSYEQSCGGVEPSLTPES
UniProt Q8N5M9: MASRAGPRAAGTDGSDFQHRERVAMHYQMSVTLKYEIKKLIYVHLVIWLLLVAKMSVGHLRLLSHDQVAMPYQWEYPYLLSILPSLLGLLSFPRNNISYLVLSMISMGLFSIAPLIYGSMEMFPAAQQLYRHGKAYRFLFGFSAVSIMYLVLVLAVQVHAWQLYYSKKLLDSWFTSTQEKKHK
UniProt Q8IYB8: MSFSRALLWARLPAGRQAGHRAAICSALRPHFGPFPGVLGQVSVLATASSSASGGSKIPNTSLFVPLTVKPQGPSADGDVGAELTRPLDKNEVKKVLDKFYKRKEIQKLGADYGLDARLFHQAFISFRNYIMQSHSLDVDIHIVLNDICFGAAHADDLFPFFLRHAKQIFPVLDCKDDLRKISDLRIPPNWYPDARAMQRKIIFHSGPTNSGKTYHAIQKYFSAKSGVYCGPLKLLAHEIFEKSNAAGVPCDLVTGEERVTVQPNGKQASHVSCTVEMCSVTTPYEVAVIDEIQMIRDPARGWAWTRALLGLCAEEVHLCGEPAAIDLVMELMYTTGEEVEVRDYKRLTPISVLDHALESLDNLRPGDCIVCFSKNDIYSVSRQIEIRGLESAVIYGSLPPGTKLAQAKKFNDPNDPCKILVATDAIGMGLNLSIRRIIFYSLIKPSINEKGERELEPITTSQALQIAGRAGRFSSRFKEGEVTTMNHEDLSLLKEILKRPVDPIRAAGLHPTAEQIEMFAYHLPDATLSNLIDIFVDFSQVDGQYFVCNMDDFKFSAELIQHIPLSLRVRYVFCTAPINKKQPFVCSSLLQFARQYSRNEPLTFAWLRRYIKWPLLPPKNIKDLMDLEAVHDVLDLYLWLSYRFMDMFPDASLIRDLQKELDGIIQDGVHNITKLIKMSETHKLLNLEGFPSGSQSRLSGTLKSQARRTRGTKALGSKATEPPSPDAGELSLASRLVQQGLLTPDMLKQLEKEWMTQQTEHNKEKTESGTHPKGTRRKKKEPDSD
UniProt Q8N6N3: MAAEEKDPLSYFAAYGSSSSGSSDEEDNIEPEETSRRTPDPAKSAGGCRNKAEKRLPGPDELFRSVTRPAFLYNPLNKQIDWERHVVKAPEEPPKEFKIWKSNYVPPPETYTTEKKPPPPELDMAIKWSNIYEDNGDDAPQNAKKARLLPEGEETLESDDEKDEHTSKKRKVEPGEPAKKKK
UniProt Q8N465: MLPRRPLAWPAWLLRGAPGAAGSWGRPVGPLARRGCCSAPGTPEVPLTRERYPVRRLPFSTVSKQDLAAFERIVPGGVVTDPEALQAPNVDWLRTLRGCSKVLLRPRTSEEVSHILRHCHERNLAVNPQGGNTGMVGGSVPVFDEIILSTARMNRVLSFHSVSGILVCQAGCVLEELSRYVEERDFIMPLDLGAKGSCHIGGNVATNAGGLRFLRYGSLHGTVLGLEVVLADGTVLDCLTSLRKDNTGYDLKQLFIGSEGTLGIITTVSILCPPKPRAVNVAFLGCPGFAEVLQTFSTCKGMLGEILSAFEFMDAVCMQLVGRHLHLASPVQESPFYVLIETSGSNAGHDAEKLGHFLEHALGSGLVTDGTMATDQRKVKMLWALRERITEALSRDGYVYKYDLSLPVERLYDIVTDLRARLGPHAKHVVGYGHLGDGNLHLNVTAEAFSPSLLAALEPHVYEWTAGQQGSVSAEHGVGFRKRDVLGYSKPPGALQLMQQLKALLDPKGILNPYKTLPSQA
UniProt Q8IX12: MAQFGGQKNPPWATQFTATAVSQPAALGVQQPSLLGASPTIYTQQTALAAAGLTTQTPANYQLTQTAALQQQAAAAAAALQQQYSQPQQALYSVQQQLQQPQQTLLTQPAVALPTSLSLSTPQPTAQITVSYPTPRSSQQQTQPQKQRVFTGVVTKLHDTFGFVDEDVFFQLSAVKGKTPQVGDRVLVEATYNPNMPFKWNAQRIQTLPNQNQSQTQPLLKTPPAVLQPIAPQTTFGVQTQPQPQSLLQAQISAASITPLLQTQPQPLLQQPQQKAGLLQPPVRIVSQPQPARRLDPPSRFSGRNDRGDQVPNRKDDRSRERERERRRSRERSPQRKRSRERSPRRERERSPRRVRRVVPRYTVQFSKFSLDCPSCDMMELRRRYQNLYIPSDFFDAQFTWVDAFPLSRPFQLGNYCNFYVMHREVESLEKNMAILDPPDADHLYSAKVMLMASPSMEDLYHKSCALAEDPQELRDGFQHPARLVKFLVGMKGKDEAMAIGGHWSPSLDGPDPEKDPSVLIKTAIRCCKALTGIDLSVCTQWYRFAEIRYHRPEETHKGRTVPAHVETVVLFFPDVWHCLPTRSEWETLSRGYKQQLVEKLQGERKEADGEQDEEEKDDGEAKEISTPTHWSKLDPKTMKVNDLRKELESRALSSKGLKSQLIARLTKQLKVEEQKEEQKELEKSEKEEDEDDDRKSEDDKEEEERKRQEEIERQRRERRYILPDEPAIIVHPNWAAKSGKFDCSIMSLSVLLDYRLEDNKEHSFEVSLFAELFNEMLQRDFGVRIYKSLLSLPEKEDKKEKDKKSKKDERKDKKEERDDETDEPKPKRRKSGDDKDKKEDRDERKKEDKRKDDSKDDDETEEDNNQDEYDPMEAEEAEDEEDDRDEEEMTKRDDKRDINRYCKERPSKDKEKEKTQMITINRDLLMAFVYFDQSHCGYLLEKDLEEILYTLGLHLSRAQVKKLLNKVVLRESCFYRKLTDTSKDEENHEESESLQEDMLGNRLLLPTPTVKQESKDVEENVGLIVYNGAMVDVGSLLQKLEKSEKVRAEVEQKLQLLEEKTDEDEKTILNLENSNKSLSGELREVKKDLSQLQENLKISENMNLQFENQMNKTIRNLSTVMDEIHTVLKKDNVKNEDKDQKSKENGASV

compound: CCc1cnccc1C(=O)Nc1cc2c(cc1F)NC(=O)CC2; test: melting temperature shift (DMSO Tm minus MBE1-treated Tm) in cellular thermal proteome profiling; higher = less thermal stabilization by MBE1 (negative = stabilized by MBE1); conditions: A375; MBE1 concentration: 100 nM

Row | Target | melting temperature shift
1 | UniProt Q8IZ13 | 0.263 °C
2 | UniProt Q8N5C8 | -0.72 °C
3 | STAG2 (UniProt Q8N3U4) | -0.604 °C
4 | ZDHHC13 (UniProt Q8IUH4) | -0.54 °C
5 | GATAD2A (UniProt Q86YP4) | -0.487 °C
6 | UBR2 (UniProt Q8IWV8) | -0.339 °C

same assay, conditions: A375; MBE1 concentration: 1 uM

Row | Target | melting temperature shift
7 | UniProt Q8IUC8 | 0.678 °C
8 | UniProt Q8IWZ6 | 0.922 °C
9 | LRRC47 (UniProt Q8N1G4) | -0.49 °C
10 | UniProt Q8IWU5 | 1.96 °C
11 | ARHGAP12 (UniProt Q8IWW6) | -0.434 °C
12 | SPG20 (UniProt Q8N0X7) | -0.238 °C
13 | RPTOR (UniProt Q8N122) | 0.153 °C
14 | ZBTB8OS (UniProt Q8IWT0) | 0.745 °C
15 | XRN1 (UniProt Q8IZH2) | -0.562 °C
16 | RPAP2 (UniProt Q8IXW5) | -0.193 °C
17 | EXOC8 (UniProt Q8IYI6) | -1.23 °C
18 | LONP2 (UniProt Q86WA8) | 0.33 °C
19 | ARFGAP1 (UniProt Q8N6T3) | -0.941 °C
20 | ARRDC1 (UniProt Q8N5I2) | 0.168 °C
21 | UniProt Q8IZQ5 | -1.18 °C
22 | UniProt Q8N5M9 | -0.413 °C
23 | UniProt Q8N5Z0 | 0.525 °C
24 | CARNMT1 (UniProt Q8N4J0) | -0.791 °C
25 | CLASRP (UniProt Q8N2M8) | -0.278 °C

Row | Target | melting temperature shift
26 | SUPV3L1 (UniProt Q8IYB8) | 0.22 °C
27 | SCYL3 (UniProt Q8IZE3) | 1.19 °C
28 | UniProt Q8IY31 | 0.147 °C
29 | DTWD1 (UniProt Q8N5C7) | -0.946 °C
30 | CHERP (UniProt Q8IWX8) | -0.288 °C
31 | UniProt Q8IWK6 | -0.134 °C
32 | C1ORF52 (UniProt Q8N6N3) | -3.1 °C
33 | DHX40 (UniProt Q8IX18) | 1.19 °C
34 | HEATR5A (UniProt Q86XA9) | 0.482 °C
35 | AFAP1 (UniProt Q8N556) | -0.692 °C
36 | PTRH1 (UniProt Q86Y79) | 0.238 °C
37 | UniProt Q8N465 | 0.63 °C
38 | CCAR1 (UniProt Q8IX12) | 0.592 °C
39 | UniProt Q8IZ13 | 0.0244 °C
40 | UniProt Q8N5C8 | -0.508 °C
41 | STAG2 (UniProt Q8N3U4) | 0.415 °C
42 | ZDHHC13 (UniProt Q8IUH4) | 0.36 °C
43 | GATAD2A (UniProt Q86YP4) | -0.308 °C
44 | UBR2 (UniProt Q8IWV8) | -0.179 °C
